The target of assay [1] is T1, FLAG-tagged podocin (UniProt Q9NP85).
T1 sequence: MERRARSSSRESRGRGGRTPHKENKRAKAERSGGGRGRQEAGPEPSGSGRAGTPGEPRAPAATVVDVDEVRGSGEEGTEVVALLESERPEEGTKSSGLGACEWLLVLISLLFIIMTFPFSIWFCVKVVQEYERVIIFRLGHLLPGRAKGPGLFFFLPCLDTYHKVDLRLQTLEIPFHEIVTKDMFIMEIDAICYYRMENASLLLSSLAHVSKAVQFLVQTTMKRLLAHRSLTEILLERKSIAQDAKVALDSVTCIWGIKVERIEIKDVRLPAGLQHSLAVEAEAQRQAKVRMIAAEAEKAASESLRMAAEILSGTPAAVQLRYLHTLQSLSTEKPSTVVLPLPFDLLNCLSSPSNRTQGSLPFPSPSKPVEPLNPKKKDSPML
The assay is described as follows: co-IP; HEK293T cells co-transfected with FLAG-podocin and GFP-SNX9 constructs; lysate in 50 mM Tris pH 7.5, 150 mM NaCl, 1.0% Triton X100; anti-FLAG-M2 agarose overnight at 4 °C; blot with anti-GFP and anti-FLAG.

Sequences of proteins named here, by UniProt entry; tags and fusion partners are left off. A change or cut given only in a name is not applied to a line headed by its entry.
UniProt Q9Y5X1: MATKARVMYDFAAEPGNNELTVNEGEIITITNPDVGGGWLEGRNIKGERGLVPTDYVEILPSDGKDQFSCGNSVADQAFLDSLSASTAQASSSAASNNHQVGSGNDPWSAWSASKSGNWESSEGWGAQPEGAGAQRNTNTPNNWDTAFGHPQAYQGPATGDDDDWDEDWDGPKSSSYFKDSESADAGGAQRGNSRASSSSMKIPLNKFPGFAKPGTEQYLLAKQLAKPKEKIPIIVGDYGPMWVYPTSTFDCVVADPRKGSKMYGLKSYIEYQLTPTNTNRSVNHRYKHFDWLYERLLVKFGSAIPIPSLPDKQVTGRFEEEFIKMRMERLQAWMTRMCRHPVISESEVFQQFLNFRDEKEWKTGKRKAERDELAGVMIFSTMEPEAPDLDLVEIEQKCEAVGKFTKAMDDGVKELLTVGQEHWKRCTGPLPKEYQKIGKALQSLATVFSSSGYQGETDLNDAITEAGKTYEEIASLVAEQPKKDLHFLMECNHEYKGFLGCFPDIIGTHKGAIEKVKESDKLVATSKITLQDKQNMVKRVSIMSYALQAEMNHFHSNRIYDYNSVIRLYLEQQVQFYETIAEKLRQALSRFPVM

Assay [2] concerns the target T2, endogenous podocin of ADR-treated cultured human podocytes (human (endogenous in cultured human podocytes)) (UniProt Q9NP85).
T2 sequence: T1 sequence
Kind of assay: co-IP; endogenous proteins from lysates of cultured human podocytes treated with 0.2 μg/ml ADR for 6 h, then 48 h ADR-free; polyclonal anti-podocin, anti-SNX9 and anti-GFP (negative control) antibodies.

These are yes or no findings as the source states them, for the method shown. Binding seen in cells or lysates may run through a third protein. Some binding calls cover weakened binding; strength is not graded here. For part of these data: Where a sequence is shown, tags or fusion partners need not be part of it.

For GFP-SNX9 (from UniProt Q9Y5X1 1-595), the binding result in assay [1] is recorded as “binds”.
On to “GFP-SNX9-BAR (from UniProt Q9Y5X1 392-595) (domain or fragment)”, for which the binding entry in assay [1] was “binds”.
Turning to “endogenous SNX9 of ADR-treated cultured human podocytes (from UniProt Q9Y5X1 1-595)”, in assay [2], the binding entry was “binds”.

Values taken from publication PMC5339724.
